Laboratory results reported in US20160340658A1, “PTERIS VITTATA PHYTASE NUCLEOTIDE AND AMINO ACID SEQUENCES AND METHODS OF USE” (UNIVERSITY OF FLORIDA RESEARCH FOUNDATION, INC., priority 2014, published 2016).
Where a name gives a salt, the structure may show the parent alone.

Tested on: Pteris vittata
Assay type: in vivo

Structure (SMILES)	PV biomass compared to the Pi treatment (0.6 mM, 40 d)	PV growth (fresh weight) (in vivo) [mg]
O=P(O)(O)OC1C(OP(=O)(O)O)C(OP(=O)(O)O)C(OP(=O)(O)O)C(OP(=O)(O)O)C1OP(=O)(O)O (centres unmarked) [P6, myo-inositol hexaphosphoric acid dodecasodium salt]	equivalent	
O=P(O)(O)O [Pi, phosphate]		115
